The subject of data set [1] is B. juncea. As to the kind of experiment: Hydroponic growth: metal uptake into B. juncea shoots (ICP). Format: in vivo, Brassica juncea. The settings on record: dry weight.
The subject of data set [2] is B. juncea. As to the kind of experiment: Potting mix: metal uptake into B. juncea plants. Format: in vivo, Brassica juncea. The conditions noted are these: metal at 5 g/L in tray water, equimolar citric acid, harvested after 1 week.
The mark [3] stands for this setting: metal 0.1 g/L, citric acid equimolar to metal.
Where [4] appears, read: metal 0.5 g/L, citric acid equimolar to metal.
[5] abbreviates: metal 2 g/L, citric acid equimolar to metal.
Where [6] appears, read: metal 10 g/L, citric acid equimolar to metal, harvested 1 week after treatment.
The mark [7] stands for this setting: metal 10 g/L, no citric acid, harvested 1 week after treatment.

With `O=[Se](=O)([O-])[O-].[Na+].[Na+]` [Se, Na2SeO4], the “metal content of plant shoots” value in the data set on B. juncea [1] (setting [3]) is on record as 537 mg/kg; in the data set on B. juncea [1] (metal 0.1 g/L, no citric acid) it was 754 mg/kg.

On to `O=S(=O)([O-])[O-].[Fe+2]` [Fe, FeSO4], for which, in the data set with B. juncea [2], the “Fe in plant tissue” value is given as 29,900 mg/kg. Besides, the “metal content of plant shoots” value in the data set on B. juncea [1] (setting [4]) came out at 252 mg/kg; in the data set on B. juncea [1] (metal 0.5 g/L, no citric acid), 132 mg/kg; in the data set on B. juncea [1] (setting [5]) it was 4293 mg/kg; in the data set with B. juncea [1] (metal 2 g/L, no citric acid), 950 mg/kg; in the data set on B. juncea [1] (setting [6]), 15545 mg/kg; in the data set on B. juncea [1] (setting [7]) it was 27707 mg/kg.

Turning to `[Cl][Cr]([Cl])[Cl]` [Cr, CrCl3], the “Cr in plant tissue” value in the data set on B. juncea [2] is 50,900 mg/kg. Further, in the data set with B. juncea [2], the “Fe in plant tissue” value was 357 mg/kg. The “metal content of plant shoots” value in the data set on B. juncea [1] (setting [3]) is 0 mg/kg; in the data set on B. juncea [1] (metal 0.1 g/L, no citric acid), 0 mg/kg; in the data set on B. juncea [1] (metal 1.0 g/L, citric acid equimolar to metal), 4700 mg/kg; in the data set on B. juncea [1] (metal 1.0 g/L, no citric acid), 715 mg/kg.

`O=S(=O)([O-])[O-].[Zn+2]` [Zn, ZnSO4]: the “Fe in plant tissue” value in the data set with B. juncea [2] worked out at 663 mg/kg. Also, the “metal content of plant shoots” value with B. juncea [1] (setting [4]) is listed as 2626 mg/kg; with B. juncea [1] (metal 0.5 g/L, no citric acid) it was 2529 mg/kg; with B. juncea [1] (setting [5]) it was 20493 mg/kg; in the data set on B. juncea [1] (metal 2 g/L, no citric acid) it was 3854 mg/kg; in the data set on B. juncea [1] (setting [6]) it was 34657 mg/kg; in the data set on B. juncea [1] (setting [7]), 41167 mg/kg.

Consider `O=S(=O)([O-])[O-].[Mn+2]` [Mn, MnSO4], for which the “metal content of plant shoots” value was found to be 950 mg/kg in the data set on B. juncea [1] (setting [4]); 4090 mg/kg with B. juncea [1] (metal 0.5 g/L, no citric acid); 7881 mg/kg in the data set with B. juncea [1] (setting [5]); 3557 mg/kg with B. juncea [1] (metal 2 g/L, no citric acid); 15782 mg/kg in the data set on B. juncea [1] (setting [6]); 8531 mg/kg with B. juncea [1] (setting [7]).

These data come from patent US7691429B2, “Nutritional supplements containing methylselenocysteine” (iBio, Inc., priority 1998, dated 2010).
